Literature values as cited in patent US12168000B2, “Methods of treating pain” (Scilex Holding Company, priority 2020, dated 2024).

Conditions: between 5° C. and 40° C.; pH-independent at pH<9

aqueous solubility: about 5 μg/ml
SMILES: Cc1ccc(-c2cc(C(F)(F)F)nn2-c2ccc(S(N)(=O)=O)cc2)cc1 [Celecoxib, 4-[5-(4-methylphenyl)-3-(trifluoromethyl)-1H-pyrazol-1-yl] benzenesulfonamide]
